Test results published in paper doi:10.1101/2024.05.31.595485.
These are yes or no findings as the source states them, for the method shown. In cells and extracts the contact can be indirect. Some binding calls cover weakened binding; strength is not graded here. Tags and fused reporters may be left off the sequences shown.

T1: STAG3 (endogenous, chromatin-bound) (mouse (endogenous in mESCs)), O70576
T1 chain: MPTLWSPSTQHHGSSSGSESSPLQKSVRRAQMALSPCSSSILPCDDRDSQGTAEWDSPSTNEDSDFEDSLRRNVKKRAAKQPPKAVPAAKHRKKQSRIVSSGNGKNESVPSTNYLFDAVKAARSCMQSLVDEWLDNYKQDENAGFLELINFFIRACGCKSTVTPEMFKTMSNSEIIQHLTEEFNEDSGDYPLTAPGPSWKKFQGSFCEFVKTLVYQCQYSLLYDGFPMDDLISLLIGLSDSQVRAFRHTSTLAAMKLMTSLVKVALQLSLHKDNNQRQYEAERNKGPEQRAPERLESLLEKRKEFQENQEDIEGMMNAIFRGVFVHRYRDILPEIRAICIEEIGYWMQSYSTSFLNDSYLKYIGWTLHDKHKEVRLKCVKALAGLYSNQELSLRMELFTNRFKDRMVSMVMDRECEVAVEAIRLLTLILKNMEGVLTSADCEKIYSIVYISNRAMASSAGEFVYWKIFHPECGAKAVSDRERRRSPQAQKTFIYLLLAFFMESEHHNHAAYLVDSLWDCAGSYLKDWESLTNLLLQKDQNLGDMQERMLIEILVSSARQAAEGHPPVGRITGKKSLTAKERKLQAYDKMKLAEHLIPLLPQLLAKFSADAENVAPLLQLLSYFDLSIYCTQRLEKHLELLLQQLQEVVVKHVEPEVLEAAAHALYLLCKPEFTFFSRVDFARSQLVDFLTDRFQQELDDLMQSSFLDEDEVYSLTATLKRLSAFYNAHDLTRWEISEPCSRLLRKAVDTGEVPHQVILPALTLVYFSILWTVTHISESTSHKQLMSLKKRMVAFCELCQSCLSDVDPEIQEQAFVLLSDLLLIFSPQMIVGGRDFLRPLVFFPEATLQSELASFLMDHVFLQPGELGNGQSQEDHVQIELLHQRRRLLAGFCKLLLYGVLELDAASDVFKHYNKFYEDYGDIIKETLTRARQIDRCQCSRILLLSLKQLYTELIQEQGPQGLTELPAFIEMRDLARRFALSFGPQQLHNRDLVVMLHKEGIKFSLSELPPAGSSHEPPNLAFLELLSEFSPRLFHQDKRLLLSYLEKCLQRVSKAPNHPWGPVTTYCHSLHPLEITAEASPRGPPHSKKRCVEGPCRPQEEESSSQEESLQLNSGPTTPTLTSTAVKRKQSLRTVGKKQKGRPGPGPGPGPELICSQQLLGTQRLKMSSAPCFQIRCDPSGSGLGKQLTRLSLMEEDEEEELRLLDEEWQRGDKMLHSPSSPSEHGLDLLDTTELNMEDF

T2: STAG3 (endogenous, chromatin-bound) (mouse (endogenous in mESCs)) (UniProt O70576)
T2 sequence: T1 chain

B1: RAD21, Q61550 1-635 (protein)
chain: MFYAHFVLSKRGPLAKIWLAAHWDKKLTKAHVFECNLESSVESIISPKVKMALRTSGHLLLGVVRIYHRKAKYLLADCNEAFIKIKMAFRPGVVDLPEENREAAYNAITLPEEFHDFDQPLPDLDDIDVAQQFSLNQSRVEEITMREEVGNISILQENDFGDFGMDDREIMREGSAFEDDDMLVSTSASNLLLEPEQSTSNLNEKMNHLEYEDQYKDDNFGEGNDGGILDDKLISNNDGGIFDDPPALSEAGVMLPEQPAHDDMDEDDNGSLGGPDSPDSVDPVEPMPTMTDQTTLVPNEEEAFALEPIDITVKETKAKRKRKLIVDSVKELDSKTIRAQLSDYSDIVTTLDLAPPTKKLMMWKETGGVEKLFFLPAQPLWNNRLLKLFTRCLTPLVPEDLRKRRKGGEADNLDEFLKEFENPEVPREEQQPQQQQPQPQRDVIDEPIIEEPSRLQDSVMEASRTTIEESAMPPPPPQGVKRKAGQIDPEPSIPPQQVEQMEIPPVELPPEEPPNICQLIPELELLPEKEKEKEKEKEEEEEEEDEDASGGDQDQEERRWNKRTQQMLHGLQRALAKTGAESISLLELCRNTNRKQAAAKFYSFLVLKKQQAIELTQEEPYSDIIATPGPRFHII
B2: CTCF (protein, UniProt Q61164 1-736)
chain: MEGEAVEAIVEESETFIKGKERKTYQRRREGGQEEDACHLPQNQTDGGEVVQDVNSSVQMVMMEQLDPTLLQMKTEVMEGTVAPEAEAAVDDTQIITLQVVNMEEQPINIGELQLVQVPVPVTVPVATTSVEELQGAYENEVSKEGLAESEPMICHTLPLPEGFQVVKVGANGEVETLEQGELPPQEDSSWQKDPDYQPPAKKTKKTKKSKLRYTEEGKDVDVSVYDFEEEQQEGLLSEVNAEKVVGNMKPPKPTKIKKKGVKKTFQCELCSYTCPRRSNLDRHMKSHTDERPHKCHLCGRAFRTVTLLRNHLNTHTGTRPHKCPDCDMAFVTSGELVRHRRYKHTHEKPFKCSMCDYASVEVSKLKRHIRSHTGERPFQCSLCSYASRDTYKLKRHMRTHSGEKPYECYICHARFTQSGTMKMHILQKHTENVAKFHCPHCDTVIARKSDLGVHLRKQHSYIEQGKKCRYCDAVFHERYALIQHQKSHKNEKRFKCDQCDYACRQERHMIMHKRTHTGEKPYACSHCDKTFRQKQLLDMHFKRYHDPNFVPAAFVCSKCGKTFTRRNTMARHADNCAGPDGVEGENGGETKKSKRGRKRKMRSKKEDSSDSEENAEPDLDDNEEEEEPAVEIEPEPEPQPQPPPPPQPVAPAPPPAKKRRGRPPGRTNQPKQNQPTAIIQVEDQNTGAIENIIVEVKKEPDAEPAEGEEEEAQAATTDAPNGDLTPEMILSMMDR

Columns and labels:
[1] = target: T1, STAG3 (endogenous, chromatin-bound) …; assay: co-IP; details: remark: other sources report otherwise
[2] = target: T2, STAG3 (endogenous, chromatin-bound) (mouse (endogenous in mESCs)); assay: co-IP

Binder | binding [1] | binding [2]
B1 | binds | –
B2 | – | binds
